From the supplement of paper PMC10849652
The other results are listed elsewhere or left out.

Sequences of proteins named here, by UniProt entry; tags and fusion partners are left off. A change or cut given only in a name is not applied to a line headed by its entry.
UniProt P78363: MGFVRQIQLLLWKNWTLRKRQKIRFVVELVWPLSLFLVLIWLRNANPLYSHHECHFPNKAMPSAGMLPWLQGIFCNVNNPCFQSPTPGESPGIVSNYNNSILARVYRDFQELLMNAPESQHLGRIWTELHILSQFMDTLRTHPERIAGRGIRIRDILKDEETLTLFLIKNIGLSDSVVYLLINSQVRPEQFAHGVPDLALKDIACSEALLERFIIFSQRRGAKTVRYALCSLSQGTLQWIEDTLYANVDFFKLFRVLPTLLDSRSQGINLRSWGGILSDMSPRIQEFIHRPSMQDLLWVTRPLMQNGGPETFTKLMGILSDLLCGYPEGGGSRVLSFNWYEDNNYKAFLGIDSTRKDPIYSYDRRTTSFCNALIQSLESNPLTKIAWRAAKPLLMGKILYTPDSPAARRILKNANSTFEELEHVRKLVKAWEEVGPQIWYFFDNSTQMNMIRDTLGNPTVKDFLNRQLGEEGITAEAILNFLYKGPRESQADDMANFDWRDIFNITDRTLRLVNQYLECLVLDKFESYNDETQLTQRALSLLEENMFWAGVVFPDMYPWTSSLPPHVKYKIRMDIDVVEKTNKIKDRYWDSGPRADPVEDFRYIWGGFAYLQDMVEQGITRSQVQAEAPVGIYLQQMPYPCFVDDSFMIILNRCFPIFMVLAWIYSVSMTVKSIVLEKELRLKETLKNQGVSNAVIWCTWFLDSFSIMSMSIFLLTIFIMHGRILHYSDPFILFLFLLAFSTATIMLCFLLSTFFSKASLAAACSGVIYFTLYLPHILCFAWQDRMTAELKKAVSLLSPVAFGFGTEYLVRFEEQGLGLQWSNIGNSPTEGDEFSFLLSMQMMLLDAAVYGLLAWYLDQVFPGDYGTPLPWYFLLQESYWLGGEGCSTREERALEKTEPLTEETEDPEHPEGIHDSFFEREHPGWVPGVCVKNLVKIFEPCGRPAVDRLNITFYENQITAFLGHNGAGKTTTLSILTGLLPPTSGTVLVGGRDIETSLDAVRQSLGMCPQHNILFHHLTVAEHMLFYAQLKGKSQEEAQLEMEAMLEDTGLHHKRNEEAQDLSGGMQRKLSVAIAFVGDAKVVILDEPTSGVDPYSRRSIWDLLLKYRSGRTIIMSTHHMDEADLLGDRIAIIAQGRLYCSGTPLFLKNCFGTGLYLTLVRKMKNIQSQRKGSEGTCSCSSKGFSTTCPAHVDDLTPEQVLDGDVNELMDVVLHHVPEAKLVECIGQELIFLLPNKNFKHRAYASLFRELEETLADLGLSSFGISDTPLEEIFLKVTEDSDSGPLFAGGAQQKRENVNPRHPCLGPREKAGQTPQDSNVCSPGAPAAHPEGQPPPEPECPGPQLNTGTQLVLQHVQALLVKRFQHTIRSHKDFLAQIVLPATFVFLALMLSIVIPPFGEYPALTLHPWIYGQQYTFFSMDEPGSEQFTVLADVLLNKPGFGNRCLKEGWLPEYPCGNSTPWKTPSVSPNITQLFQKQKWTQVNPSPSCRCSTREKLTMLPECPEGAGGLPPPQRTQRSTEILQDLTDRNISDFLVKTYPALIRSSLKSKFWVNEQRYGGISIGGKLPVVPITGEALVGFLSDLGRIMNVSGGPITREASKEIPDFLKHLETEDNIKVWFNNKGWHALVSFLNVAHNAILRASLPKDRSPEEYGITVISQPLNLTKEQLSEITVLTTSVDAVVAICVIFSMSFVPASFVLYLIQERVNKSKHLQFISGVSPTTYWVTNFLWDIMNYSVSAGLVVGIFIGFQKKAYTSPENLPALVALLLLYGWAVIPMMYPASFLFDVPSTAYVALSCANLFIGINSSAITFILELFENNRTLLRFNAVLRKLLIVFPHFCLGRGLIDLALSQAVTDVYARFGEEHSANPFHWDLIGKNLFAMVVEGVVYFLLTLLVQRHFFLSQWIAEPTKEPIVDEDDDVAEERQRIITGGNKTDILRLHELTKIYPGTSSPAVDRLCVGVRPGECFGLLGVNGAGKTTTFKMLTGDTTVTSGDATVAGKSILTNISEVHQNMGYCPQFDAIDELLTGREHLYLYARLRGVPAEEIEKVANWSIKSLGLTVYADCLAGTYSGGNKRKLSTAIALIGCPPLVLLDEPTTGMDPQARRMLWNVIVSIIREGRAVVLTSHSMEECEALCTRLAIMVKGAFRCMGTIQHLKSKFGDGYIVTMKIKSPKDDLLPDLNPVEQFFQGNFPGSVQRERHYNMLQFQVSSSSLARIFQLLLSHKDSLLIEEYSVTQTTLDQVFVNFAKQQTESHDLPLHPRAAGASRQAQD
UniProt Q9NPJ3: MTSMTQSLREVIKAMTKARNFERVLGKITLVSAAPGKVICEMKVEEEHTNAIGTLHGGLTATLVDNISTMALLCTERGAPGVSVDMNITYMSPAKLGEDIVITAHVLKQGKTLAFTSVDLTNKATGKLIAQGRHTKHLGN
UniProt Q9Y312: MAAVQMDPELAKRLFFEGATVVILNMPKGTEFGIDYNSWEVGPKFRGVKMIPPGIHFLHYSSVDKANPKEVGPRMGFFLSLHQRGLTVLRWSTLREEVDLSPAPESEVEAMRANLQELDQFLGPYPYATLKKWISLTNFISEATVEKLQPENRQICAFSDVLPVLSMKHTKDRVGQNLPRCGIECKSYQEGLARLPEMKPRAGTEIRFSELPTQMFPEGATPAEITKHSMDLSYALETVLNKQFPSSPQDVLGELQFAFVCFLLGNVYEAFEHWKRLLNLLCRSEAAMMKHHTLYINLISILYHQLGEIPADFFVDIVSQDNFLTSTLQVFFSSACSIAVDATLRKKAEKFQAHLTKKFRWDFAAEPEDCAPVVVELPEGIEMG
UniProt P53396: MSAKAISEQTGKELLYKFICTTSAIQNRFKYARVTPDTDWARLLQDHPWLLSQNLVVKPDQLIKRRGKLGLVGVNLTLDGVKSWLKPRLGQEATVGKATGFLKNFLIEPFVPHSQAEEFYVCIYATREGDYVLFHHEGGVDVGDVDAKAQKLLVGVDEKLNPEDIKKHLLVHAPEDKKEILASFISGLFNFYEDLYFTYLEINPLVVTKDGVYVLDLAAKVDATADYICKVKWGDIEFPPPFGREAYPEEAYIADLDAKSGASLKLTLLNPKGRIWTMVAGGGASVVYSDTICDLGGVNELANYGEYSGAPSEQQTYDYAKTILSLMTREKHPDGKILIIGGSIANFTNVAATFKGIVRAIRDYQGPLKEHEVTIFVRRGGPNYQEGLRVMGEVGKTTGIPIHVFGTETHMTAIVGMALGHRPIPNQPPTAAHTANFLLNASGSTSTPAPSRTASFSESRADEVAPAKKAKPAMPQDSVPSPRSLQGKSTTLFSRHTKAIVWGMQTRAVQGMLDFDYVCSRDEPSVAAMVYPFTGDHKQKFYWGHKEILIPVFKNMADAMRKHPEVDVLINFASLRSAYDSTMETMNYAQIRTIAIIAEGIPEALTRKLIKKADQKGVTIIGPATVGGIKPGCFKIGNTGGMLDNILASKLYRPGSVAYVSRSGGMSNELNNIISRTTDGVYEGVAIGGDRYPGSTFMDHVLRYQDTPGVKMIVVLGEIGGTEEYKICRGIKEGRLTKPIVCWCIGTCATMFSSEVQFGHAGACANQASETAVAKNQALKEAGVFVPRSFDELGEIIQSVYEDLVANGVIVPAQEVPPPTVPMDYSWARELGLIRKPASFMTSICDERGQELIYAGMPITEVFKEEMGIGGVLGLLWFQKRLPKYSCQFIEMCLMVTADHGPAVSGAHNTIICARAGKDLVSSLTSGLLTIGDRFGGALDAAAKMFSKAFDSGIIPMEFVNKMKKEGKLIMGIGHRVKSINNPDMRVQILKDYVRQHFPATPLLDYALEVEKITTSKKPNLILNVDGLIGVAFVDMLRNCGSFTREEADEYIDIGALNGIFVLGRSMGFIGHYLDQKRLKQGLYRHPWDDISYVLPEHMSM
UniProt Q9UKU7: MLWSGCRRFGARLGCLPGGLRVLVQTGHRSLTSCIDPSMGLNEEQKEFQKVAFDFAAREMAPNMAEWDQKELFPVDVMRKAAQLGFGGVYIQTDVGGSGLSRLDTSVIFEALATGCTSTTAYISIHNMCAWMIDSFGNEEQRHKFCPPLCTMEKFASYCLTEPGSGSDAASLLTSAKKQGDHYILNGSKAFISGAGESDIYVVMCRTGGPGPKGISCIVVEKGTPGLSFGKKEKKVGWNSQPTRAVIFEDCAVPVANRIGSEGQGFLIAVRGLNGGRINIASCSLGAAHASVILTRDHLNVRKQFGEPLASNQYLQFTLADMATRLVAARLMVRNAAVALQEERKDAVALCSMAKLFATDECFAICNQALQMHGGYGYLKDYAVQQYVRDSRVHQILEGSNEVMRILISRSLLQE
UniProt P12821, whole entry, looked up: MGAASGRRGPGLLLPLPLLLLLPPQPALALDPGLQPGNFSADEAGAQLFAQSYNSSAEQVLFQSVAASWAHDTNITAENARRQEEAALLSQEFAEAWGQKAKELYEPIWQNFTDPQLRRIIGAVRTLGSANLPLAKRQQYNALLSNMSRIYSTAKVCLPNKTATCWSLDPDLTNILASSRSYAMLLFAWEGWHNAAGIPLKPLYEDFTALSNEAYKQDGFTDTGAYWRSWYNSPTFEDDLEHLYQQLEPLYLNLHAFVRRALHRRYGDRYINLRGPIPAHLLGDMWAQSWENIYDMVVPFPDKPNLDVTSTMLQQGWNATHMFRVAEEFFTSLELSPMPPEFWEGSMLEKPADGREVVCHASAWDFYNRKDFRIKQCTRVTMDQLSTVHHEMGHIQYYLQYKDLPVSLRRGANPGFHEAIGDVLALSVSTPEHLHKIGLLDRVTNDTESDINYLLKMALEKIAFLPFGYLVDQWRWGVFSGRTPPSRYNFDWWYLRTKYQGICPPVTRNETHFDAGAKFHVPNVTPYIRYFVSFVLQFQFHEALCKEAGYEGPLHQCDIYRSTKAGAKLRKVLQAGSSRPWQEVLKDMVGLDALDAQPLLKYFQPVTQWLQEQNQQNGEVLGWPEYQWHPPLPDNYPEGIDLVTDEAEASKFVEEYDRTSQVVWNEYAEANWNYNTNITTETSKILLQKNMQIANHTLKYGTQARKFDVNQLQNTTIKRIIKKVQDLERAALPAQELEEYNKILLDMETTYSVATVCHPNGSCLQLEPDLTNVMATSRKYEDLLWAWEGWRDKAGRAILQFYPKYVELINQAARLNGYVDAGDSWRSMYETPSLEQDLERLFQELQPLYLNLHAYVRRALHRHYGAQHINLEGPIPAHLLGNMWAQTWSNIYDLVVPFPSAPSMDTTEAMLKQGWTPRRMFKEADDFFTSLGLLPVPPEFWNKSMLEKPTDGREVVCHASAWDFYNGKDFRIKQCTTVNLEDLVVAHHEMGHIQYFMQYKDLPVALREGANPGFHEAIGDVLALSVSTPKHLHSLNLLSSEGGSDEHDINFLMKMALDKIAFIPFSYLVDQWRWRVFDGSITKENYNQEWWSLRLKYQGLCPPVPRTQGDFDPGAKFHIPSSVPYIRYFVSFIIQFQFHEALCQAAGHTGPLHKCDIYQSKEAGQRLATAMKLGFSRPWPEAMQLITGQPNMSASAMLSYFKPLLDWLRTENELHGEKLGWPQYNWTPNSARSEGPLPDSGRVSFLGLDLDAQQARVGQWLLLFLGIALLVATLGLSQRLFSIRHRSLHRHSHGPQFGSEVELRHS
UniProt Q8IZP0: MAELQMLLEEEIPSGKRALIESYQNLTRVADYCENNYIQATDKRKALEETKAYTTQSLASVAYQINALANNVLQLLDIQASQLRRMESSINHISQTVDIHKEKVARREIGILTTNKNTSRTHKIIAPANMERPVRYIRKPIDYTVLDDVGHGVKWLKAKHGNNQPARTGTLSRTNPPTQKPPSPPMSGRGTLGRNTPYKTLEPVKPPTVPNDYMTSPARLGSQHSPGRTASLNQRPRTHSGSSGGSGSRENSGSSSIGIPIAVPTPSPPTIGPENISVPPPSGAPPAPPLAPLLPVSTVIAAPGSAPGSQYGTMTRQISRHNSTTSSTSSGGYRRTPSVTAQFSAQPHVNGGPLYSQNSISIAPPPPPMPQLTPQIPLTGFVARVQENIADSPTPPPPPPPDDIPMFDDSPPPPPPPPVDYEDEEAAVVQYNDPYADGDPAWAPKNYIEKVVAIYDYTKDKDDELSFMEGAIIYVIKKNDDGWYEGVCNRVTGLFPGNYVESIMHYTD

Assays:
Test in all cases: log2 fold change, soluble protein after heating vs DMSO (PISA); higher = thermal stabilisation; K562 lysate, 10 uM; active = over 0.2 and 3.5 SD of the protein, either way, in both replicates (recomputed)
[1] = compound: CCCS(=O)(=O)Nc1ccc(F)c(C(=O)c2c[nH]c3ncc(-c4ccc(Cl)cc4)cc23)c1F [vemurafenib]
Outline: (§1)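 Following dounce homogenisation of K562 pellets in PBS pH 7.4 with 1 mM MgCl2, crude extract at 1 mg/mL protein was incubated for 30 min with 10 μM compound. Aliquots were then heated for 3 min over 48°C-58°C and pooled, NP-40 was added to 0.5% at 4°C, and soluble protein was recovered as the supernatant at 21,000xg for 90 min. Channel-sum-equalised TMTpro 16plex LC-MS/MS quantified this protein. Each value, from duplicates, is a log-two fold change in thermal stability relative to solvent controls.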

[2] = compound: CCCS(=O)(=O)Nc1ccc(F)c(C(=O)c2c[nH]c3ncc(Cl)cc23)c1F
Outline: as §1

[3] = compound: CCN(CCCOc1ccc2c(Nc3cc(CC(=O)Nc4cccc(F)c4)[nH]n3)ncnc2c1)CCOP(=O)(O)O [barasertib]
Outline: as §1

[4] = compound: CC[C@@H]1C(=O)N(C)c2cnc(Nc3ccc(C(=O)NC4CCN(C)CC4)cc3OC)nc2N1C1CCCC1
Outline: as §1

[5] = compound: CC[C@@H]1C(=O)N(C)c2cnc(Nc3ccc(C(=O)N[C@H]4CC[C@H](N5CCN(CC6CC6)CC5)CC4)cc3OC)nc2N1C(C)C [volasertib]
Outline: as §1

[6] = compound: CCn1c(C(=O)N(C2CC2)C2CC2)cc2c3c(ncn3C)c(Nc3cc(C)n(C)n3)nc21
Outline: as §1

[7] = compound: CCn1cc(-c2ccnc3[nH]c(-c4cccc(CN(C)C)c4)cc23)c(-c2ccc(NC(=O)N(C)C)cc2)n1
Outline: as §1

[8] = compound: CN1CCC(CNc2ccc3ncc(-c4cccc(OC(F)(F)F)c4)n3n2)CC1
Outline: as §1

[9] = compound: CN1CCN(CCOc2cc(OC3CCOCC3)c3c(Nc4c(Cl)ccc5c4OCO5)ncnc3c2)CC1 [saracatinib]
Outline: as §1

[10] = compound: CN1CCN(c2nc(C3=C(c4c[nH]c5ccccc45)C(=O)NC3=O)c3ccccc3n2)CC1 [sotrastaurin]
Outline: as §1

[11] = compound: CN1CC[C@H](c2c(O)cc(O)c3c(=O)cc(-c4ccccc4Cl)oc23)[C@H](O)C1 [alvocidib]
Outline: as §1

[12] = compound: CN1CCc2c(c3ccccc3n2Cc2ccc(C(=O)NO)cc2)C1 [Tubastatin A]
Outline: as §1

[13] = compound: CNC(=O)C1=CC=CC=C1NC2=NC(=NC=C2Cl)NC3=C(C=C(C=C3)N4CCOCC4)OC
Outline: as §1

[14] = compound: CNC(=O)c1ccc(Nc2ncc(C(F)(F)F)c(NCc3nccnc3N(C)S(C)(=O)=O)n2)cc1 [defactinib]
Outline: as §1

[15] = compound: CNc1nc(-c2ccc3c(N)n[nH]c3c2)cc(N2C[C@@H](C(=O)NC3CCCCC3)CC[C@H]2C)n1
Outline: as §1

[16] = compound: COC(=O)N[C@@H](C)CNc1nccc(-c2cn(C(C)C)nc2-c2cc(Cl)cc(NS(C)(=O)=O)c2F)n1 [encorafenib]
Outline: as §1

[17] = compound: COC(=O)[C@H](CCSC)NC(=O)C1=C(C=C(C=C1)NC[C@H](CS)N)C2=CC=CC=C2
Outline: as §1

[18] = compound: COc1cc(Nc2ncc3c(n2)-c2ccc(Cl)cc2C(c2c(F)cccc2OC)=NC3)ccc1C(=O)O [alisertib]
Outline: as §1

[19] = compound: COc1cc2nc(-c3cc(F)ccc3O)nc(N[C@@H]3CNC[C@H]3C(C)(C)O)c2cc1OC
Outline: as §1

[20] = compound: COc1cc2ncnc(Nc3ccc(F)c(Cl)c3)c2cc1OCCCN1CCOCC1 [gefitinib]
Outline: as §1

Measured: log2 fold change

ABCA4 (UniProt P78363)
inactive: [1] 0.069 | [2] -0.067 | [3] 0.016 | [4] 0.119 | [5] -0.017 | [6] -0.093 | [7] -0.29 | [8] 0.091 | [9] 0.006 | [10] -0.032 | [11] -0.047 | [12] 0.135 | [13] 0.013 | [14] 0.004 | [15] 0.246 | [16] -0.066 | [17] 0.018 | [18] -0.058 | [19] 0.096 | [20] 0.065

ACOT13 (UniProt Q9NPJ3)
inactive: [1] 0.012 | [2] -0.013 | [3] -0.035 | [4] 0.029 | [5] 0.02 | [6] -0.004 | [7] -0.032 | [8] 0.043 | [9] -0.011 | [10] -0.006 | [11] 0.008 | [12] 0.061 | [13] -0.029 | [14] 0 | [15] -0.009 | [16] -0.012 | [17] -0.012 | [18] -0.039 | [19] 0.011 | [20] -0.036

ABCA3 (UniProt Q99758)
inactive: [1] 0.114 | [2] -0.044 | [3] 0.057 | [4] -0.009 | [5] 0.089 | [6] -0.163 | [7] -0.086 | [8] 0.051 | [9] -0.05 | [10] 0.031 | [11] 0.109 | [12] 0.188 | [13] -0.017 | [14] -0.037 | [15] 0.317 | [16] -0.12 | [17] 0.025 | [19] -0.09

AAR2 (UniProt Q9Y312)
inactive: [1] 0.032 | [2] 0.03 | [3] 0.011 | [4] -0.029 | [5] 0.005 | [6] -0.007 | [7] 0.022 | [8] 0.001 | [9] -0.017 | [10] 0 | [11] 0.044 | [12] 0.021 | [13] -0.036 | [14] -0.009 | [15] 0.023 | [16] 0.038 | [17] -0.012 | [18] 0.033 | [19] -0.009 | [20] -0.029

ABCE1 (UniProt H0Y990)
inactive: [1] 0.105 | [3] -0.058 | [4] -0.064 | [6] -0.176 | [7] 0.068 | [8] -0.043 | [10] 0.02 | [11] 0.062 | [12] 0.097 | [13] 0.208 | [14] -0.135 | [16] -0.097 | [17] -0.062

ABTB2 (UniProt Q8N961)
inactive: [3] 0.224 | [6] -0.058 | [7] -0.708 | [8] -0.126 | [11] -0.463 | [12] -0.137

A2ML1 (UniProt A8K2U0)
inactive: [2] -0.018 | [3] 0.853 | [5] 0.033 | [6] 0.243 | [7] -0.289 | [8] 0.099 | [10] 0.16 | [11] -0.061 | [12] 0.297 | [13] -0.225 | [19] 0.041

ACLY isoform 2 (UniProt P53396)
inactive: [1] 0.035 | [2] 0 | [3] -0.088 | [4] 0.045 | [5] -0.033 | [6] -0.187 | [8] 0.43 | [10] 0.02 | [11] -0.147 | [12] 0.017 | [14] 0.007 | [16] 0.072 | [17] 0.009 | [18] -0.089 | [19] 0.071 | [20] -0.407
active: [7] -0.485

ACAD8 (UniProt Q9UKU7)
inactive: [1] 0.023 | [2] 0.022 | [3] -0.121 | [5] -0.01 | [7] -0.046 | [8] 0.019 | [9] 0.102 | [10] 0.041 | [11] -0.056 | [14] -0.065 | [15] -0.052 | [19] 0.095

ACE (UniProt P12821)
inactive: [1] 0.132 | [2] 0.011 | [5] -0.148 | [13] 0.096 | [14] -0.017 | [19] -0.176

AASDH (UniProt Q4L235)
inactive: [1] -0.015 | [2] 0.063 | [3] 0.02 | [4] 0.024 | [5] -0.023 | [6] 0.004 | [7] -0.01 | [8] -0.056 | [9] 0.051 | [11] 0.029 | [12] -0.005 | [13] 0.023 | [14] -0.059 | [15] 0.017 | [16] 0.005 | [17] 0 | [18] 0.036 | [19] -0.075 | [20] -0.008

ABCA7 (UniProt Q8IZY2)
inactive: [9] -0.042 | [10] -0.056 | [15] -0.086

ABI1 isoform 6 (UniProt Q8IZP0)
inactive: [2] -0.219 | [4] 0.248 | [5] 0.026 | [16] -0.212 | [17] 0.114 | [19] 0.023

ABCA8 isoform 3 (UniProt O94911)
inactive: [2] -0.063 | [5] 0.005 | [7] 0.035 | [8] -0.016 | [10] 0.268 | [11] 0.013 | [13] -0.073 | [19] -0.057

ABCC3 isoform 4 (UniProt O15438)
inactive: [2] 0.033 | [5] 0.01 | [6] 0.061 | [9] 0.035 | [10] 0.03 | [12] 0.028 | [15] -0.054 | [19] -0.015

A0A494C100, A0A494C100
inactive: [1] -0.142 | [3] -0.053 | [7] 0.219 | [8] -0.09 | [9] -0.705 | [11] 0.011 | [14] -0.015 | [15] -0.003

Quoted at random: 2 records from the list, in no set order.
A0A494C100, A0A494C100
inactive: [1] -0.142 | [3] -0.053 | [7] 0.219 | [8] -0.09 | [9] -0.705 | [11] 0.011 | [14] -0.015 | [15] -0.003

ABI1 isoform 6 (UniProt Q8IZP0)
inactive: [2] -0.219 | [4] 0.248 | [5] 0.026 | [16] -0.212 | [17] 0.114 | [19] 0.023
